Paper PMC12631104
Results are given in words; binding and its absence hold for the method and conditions named. A result given as binding can be weak or reduced; the word gives no strength. For part of these data: Tags and fused reporters may be left off the sequences shown.

Protein sequences, listed by entry. Tags and fused reporters are not part of them. Lines headed by an entry give the natural chain unless they say otherwise; changes in a name come on top.
UniProt P09429: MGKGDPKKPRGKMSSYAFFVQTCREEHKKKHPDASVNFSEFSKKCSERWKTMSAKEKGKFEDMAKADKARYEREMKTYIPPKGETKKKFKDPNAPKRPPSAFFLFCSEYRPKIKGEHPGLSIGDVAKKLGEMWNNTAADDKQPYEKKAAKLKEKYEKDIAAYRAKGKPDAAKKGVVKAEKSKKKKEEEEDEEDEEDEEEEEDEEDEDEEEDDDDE
UniProt O94813: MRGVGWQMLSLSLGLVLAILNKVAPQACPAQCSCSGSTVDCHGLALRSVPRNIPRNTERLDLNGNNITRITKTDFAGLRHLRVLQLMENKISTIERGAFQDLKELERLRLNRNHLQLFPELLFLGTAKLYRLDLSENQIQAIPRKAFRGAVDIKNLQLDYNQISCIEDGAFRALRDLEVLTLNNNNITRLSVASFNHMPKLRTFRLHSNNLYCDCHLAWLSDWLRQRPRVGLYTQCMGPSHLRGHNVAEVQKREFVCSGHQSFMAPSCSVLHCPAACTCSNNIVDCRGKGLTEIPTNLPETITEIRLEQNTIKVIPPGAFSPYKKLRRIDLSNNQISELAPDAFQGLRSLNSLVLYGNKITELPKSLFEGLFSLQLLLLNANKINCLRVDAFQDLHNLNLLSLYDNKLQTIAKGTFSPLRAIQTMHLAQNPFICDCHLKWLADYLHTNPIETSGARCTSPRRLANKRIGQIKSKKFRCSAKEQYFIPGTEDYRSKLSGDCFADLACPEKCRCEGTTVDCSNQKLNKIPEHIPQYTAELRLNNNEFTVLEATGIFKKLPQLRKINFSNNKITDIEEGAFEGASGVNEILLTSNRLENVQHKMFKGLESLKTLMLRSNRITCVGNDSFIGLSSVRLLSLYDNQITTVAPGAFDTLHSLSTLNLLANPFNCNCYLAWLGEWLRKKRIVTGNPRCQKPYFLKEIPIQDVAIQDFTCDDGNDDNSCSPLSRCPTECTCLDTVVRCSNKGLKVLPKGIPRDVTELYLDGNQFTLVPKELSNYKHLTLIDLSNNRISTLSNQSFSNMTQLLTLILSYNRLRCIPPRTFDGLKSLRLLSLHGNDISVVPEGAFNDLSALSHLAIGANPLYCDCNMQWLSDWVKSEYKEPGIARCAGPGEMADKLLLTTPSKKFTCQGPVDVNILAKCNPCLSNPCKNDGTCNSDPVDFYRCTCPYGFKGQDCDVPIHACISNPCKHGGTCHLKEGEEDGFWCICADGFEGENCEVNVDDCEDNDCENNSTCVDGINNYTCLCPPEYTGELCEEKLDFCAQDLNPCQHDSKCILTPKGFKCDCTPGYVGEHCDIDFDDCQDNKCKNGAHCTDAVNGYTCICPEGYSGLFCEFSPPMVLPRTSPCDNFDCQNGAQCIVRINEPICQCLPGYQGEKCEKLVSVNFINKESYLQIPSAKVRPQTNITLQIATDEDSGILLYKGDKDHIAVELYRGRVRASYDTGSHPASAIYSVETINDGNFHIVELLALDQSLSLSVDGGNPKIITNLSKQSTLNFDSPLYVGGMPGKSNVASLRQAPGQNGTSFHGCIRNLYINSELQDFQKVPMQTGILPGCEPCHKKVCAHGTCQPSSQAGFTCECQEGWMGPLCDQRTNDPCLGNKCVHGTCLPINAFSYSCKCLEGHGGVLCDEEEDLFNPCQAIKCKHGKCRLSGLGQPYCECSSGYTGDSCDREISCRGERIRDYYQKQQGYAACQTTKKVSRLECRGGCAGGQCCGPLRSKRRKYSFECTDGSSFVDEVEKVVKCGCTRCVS

How the values were obtained:
Test in all cases: pull-down; purified GST or GST-fusion HMGB1/2 immobilized on glutathione resin (4 C, 2 hours), incubated with purified SLIT2, SLIT2-N or SLIT2-C (4 C, 4 hours); washed with PBS, 0.1% Triton X-100; SDS-PAGE and immunoblotting; both purified
[1] = target: T1, GST-fusion HMGB2 (high mobility group box 2) (UniProt P26583)
T1 sequence: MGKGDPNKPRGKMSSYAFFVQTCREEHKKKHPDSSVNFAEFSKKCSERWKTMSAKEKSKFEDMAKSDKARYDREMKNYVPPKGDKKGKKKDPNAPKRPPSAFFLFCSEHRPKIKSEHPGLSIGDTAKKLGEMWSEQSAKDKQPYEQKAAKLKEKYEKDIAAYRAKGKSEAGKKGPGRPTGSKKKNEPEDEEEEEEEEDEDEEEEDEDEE

[2] = target: GST-fusion HMGB1 (high mobility group box 1) (UniProt P09429)
[3] = target: K-Hcy-modified GST-fusion HMGB1 (UniProt P09429)
[4] = target: T2, K-Hcy-modified GST-fusion HMGB2 (UniProt P26583)
T2 sequence (chain, N-homocysteinylated lysines (K-Hcy); sites not stated for this protein): T1 sequence

Measured: binding

purified SLIT2-N terminal (N) protein (from UniProt O94813) (domain or fragment)
binds: [1] | [2] | [3] | [4]

purified SLIT2-C terminal (C) protein (from UniProt O94813) (domain or fragment)
binds: [1] | [2]
